These are yes or no findings as the source states them, for the method shown. For part of these data: In cells and extracts the contact can be indirect. Some binding calls cover weakened binding; strength is not graded here.

Amino acid sequences for entries named in this document (tags omitted). Residues count along the entry.
UniProt P07237, residues 18-508: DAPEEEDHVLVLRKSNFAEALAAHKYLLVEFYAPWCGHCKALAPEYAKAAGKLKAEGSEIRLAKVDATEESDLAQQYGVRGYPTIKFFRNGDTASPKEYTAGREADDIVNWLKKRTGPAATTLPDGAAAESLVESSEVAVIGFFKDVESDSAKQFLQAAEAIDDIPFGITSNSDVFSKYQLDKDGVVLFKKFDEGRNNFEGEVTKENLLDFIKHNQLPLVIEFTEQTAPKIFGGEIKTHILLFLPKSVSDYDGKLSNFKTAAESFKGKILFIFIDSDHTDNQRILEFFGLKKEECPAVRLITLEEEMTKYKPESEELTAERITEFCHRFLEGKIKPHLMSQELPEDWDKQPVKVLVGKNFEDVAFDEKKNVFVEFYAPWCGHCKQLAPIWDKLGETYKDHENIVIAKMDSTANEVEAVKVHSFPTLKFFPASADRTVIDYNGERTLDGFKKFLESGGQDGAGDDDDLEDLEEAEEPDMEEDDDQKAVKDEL

Here are results for two substances from publication PMC4316587.

Test [1] deals with CRT-GFP fusion protein, expressed in cells (UniProt P27797). Nature of the test: FRET or BRET; FLIM-FRET (GFP donor lifetime) in living transfected AR42j pancreatic acinar cells, untreated or treated with cholecystokinin (CCK, 10 μM).
Test [2] has the same target. In words: FRET or BRET; FLIM-FRET (GFP donor lifetime) in living transfected COS7 cells, untreated or treated with thapsigargin to deplete ER calcium; association also seen in DTT-treated cells (Figure S4). A general note: In BRET a luciferase serves as donor, and the signal depends on an acceptor being close.
Test [3] concerns the target CRT-GFP (green fluorescent protein tagged calreticulin), purified from bacteria (UniProt P27797). Nature of the test: FRET or BRET; in vitro; CRT-GFP donor and mCherry-tagged acceptor both at 12 μM; 50 mM HEPES pH 7.2, 100 mM KCl, 2 mM CaCl2, EGTA added to give 8 to 2,000 μM free Ca2+; ratio of emission at 630 nm and 520 nm, excited at 485 nm; both purified.

Take “PDI1A-mCherry, ER-localized, expressed in cells (from UniProt P07237 18-508) (enzyme)”: the binding result in test [1] and in test [2] was “binds” each time.

Consider “PDI1A-mCherry (monomeric Cherry tagged protein disulfide isomerase 1A), purified from bacteria (from UniProt P07237 18-508) (enzyme)”, for which, in test [3], the binding entry is “binds”.
